{"source": "patent US7468281B2", "about": "“Hollow fiber membrane sample preparation devices” (priority 2001, dated 2008)", "test": "LPME of drugs from human plasma, urine and whole blood with vial format device, CZE analysis", "type": "physicochemical", "data": [{"molecule": "CNCCCC1(c2ccc(F)cc2)OCc2cc(C#N)ccc21", "note": "(stereo not drawn) [N-desmethyl metabolite, N-desmethylcitalopram]", "values": [{"measurement": "Detection limit", "setting": "human plasma, 200 nm", "value": 5, "unit": "ng/mL"}]}, {"molecule": "COc1ccc2cc([C@H](C)C(=O)O)ccc2c1", "note": "[Naproxen, naproxen]", "values": [{"measurement": "Detection limit", "setting": "human urine, 226 nm", "value": 2, "unit": "ng/mL"}]}, {"molecule": "CN[C@@H](C)Cc1ccccc1", "note": "[methamphetamine]", "values": [{"measurement": "Detection limit", "setting": "human urine or plasma, UV 200 nm", "value": 5, "unit": "ng/mL"}]}]}
